Test results as given in patent US12448391B2, “Bicyclic derivatives for treating endoparasites” (Elanco Tiergesundheit AG, priority 2019, dated 2025).
Some results were stated once for a whole list of compounds, not compound by compound.

Columns and labels:
A. viteae = test: Filarial nematodes, Av model in gerbils; details: oral gavage, dose between 1×3 mg/kg and 5×32 mg/kg, necropsy 12 weeks after infection
L. sigmodontis = test: L.s. model in BALB/c mice; details: oral gavage or subcutaneous injection, dose between 1×3 mg/kg and 5×32 mg/kg, necropsy 35 to 37 days after infection
H. contortus = test: Gastro intestinal nematodes in jirds (H. contortus); details: Jirds (Meriones unguiculatus), oral, Day 6 after infection, dose between 1×3 mg/kg and 1×32 mg/kg, worms from stomach three days after treatment
T. colubriformis = test: Gastro intestinal nematodes in jirds (T. colubriformis); details: Jirds (Meriones unguiculatus), oral, Day 6 after infection, dose between 1×3 mg/kg and 1×32 mg/kg, worms from small intestine three days after treatment

O=C(NN1CCOc2ccccc21)c1cnc2c(-c3cc(Cl)cc(C(F)(F)F)c3)nccc2c1N1CCOCC1 [Example 2.6, 8-[3-chloro-5-(trifluoromethyl)phenyl]-N-(2,3-dihydro-1,4-benzoxazin-4-yl)-4-morpholino-1,7-naphthyridine-3-carboxamide]
% effective against Av (% reduction in worm numbers vs placebo, Abbot's formula) (A. viteae): > 80%

O=C(NN1CCOc2ccccc21)c1cnc2c(-c3cc(Cl)cc(Cl)c3)ccnc2c1N1CCOCC1 [Example 3.3, 8-(3,5-dichlorophenyl)-N-(2,3-dihydro-1,4-benzoxazin-4-yl)-4-morpholino-1,5-naphthyridine-3-carboxamide]
% effective against L.s. (% reduction in worm numbers vs placebo, Abbot's formula) (L. sigmodontis): > 80% | % effective against Hc (% reduction in worm numbers vs placebo, Abbot's formula) (H. contortus): > 80% | % effective against Tc (% reduction in worm numbers vs placebo, Abbot's formula) (T. colubriformis): > 80%

O=C(NN1CCOc2ccccc21)c1cnc2c(-c3cc(Cl)c(F)c(Cl)c3F)c(F)ccc2c1N1CCOCC1 [Example 5.48, 8-(3,5-dichloro-2,4-difluoro-phenyl)-N-(2,3-dihydro-1,4-benzoxazin-4-yl)-7-fluoro-4-morpholino-quinoline-3-carboxamide]
% effective against L.s. (% reduction in worm numbers vs placebo, Abbot's formula) (L. sigmodontis): > 80%

O=C(NN1CCOc2ccccc21)c1cnc2c(-c3cc(F)cc(F)c3F)c(F)ccc2c1N1CCOCC1 [Example 5.4, N-(2,3-dihydro-1,4-benzoxazin-4-yl)-7-fluoro-4-morpholino-8-(2,3,5-trifluorophenyl)quinoline-3-carboxamide]
% effective against Av (% reduction in worm numbers vs placebo, Abbot's formula) (A. viteae): > 80% | % effective against Hc (% reduction in worm numbers vs placebo, Abbot's formula) (H. contortus): > 80% | % effective against Tc (% reduction in worm numbers vs placebo, Abbot's formula) (T. colubriformis): > 80%

O=C(NN1CCOc2ccccc21)c1cnc2c(-c3cc(F)c(F)c(F)c3)c(F)ccc2c1N1CCOCC1 [Example 5.41, N-(2,3-dihydro-1,4-benzoxazin-4-yl)-7-fluoro-4-morpholino-8-(3,4,5-trifluorophenyl)quinoline-3-carboxamide]
% effective against L.s. (% reduction in worm numbers vs placebo, Abbot's formula) (L. sigmodontis): > 80%

O=C(NN1CCOc2ccccc21)c1cnc2c(-c3cccc(Cl)c3Cl)cccc2c1N1CCOCC1 [Example 5.2, 8-(2,3-dichlorophenyl)-N-(2,3-dihydro-1,4-benzoxazin-4-yl)-4-morpholino-quinoline-3-carboxamide]
% effective against Hc (% reduction in worm numbers vs placebo, Abbot's formula) (H. contortus): > 80% | % effective against Tc (% reduction in worm numbers vs placebo, Abbot's formula) (T. colubriformis): > 80%

O=C(NN1CCOc2ccccc21)c1cnc2c(-c3cc(Cl)cc(Cl)c3)nccc2c1N1CCOCC1 [Example 2.3, 8-(3,5-dichlorophenyl)-N-(2,3-dihydro-1,4-benzoxazin-4-yl)-4-morpholino-1,7-naphthyridine-3-carboxamide]
% effective against Hc (% reduction in worm numbers vs placebo, Abbot's formula) (H. contortus): > 80%

CN(C)c1c(C(=O)NN2CCOc3ccccc32)cnc2c(-c3cc(Cl)cc(Cl)c3)ccnc12 [Example 3.1, 8-(3,5-dichlorophenyl)-N-(2,3-dihydro-1,4-benzoxazin-4-yl)-4-(dimethylamino)-1,5-naphthyridine-3-carboxamide]
% effective against Hc (% reduction in worm numbers vs placebo, Abbot's formula) (H. contortus): > 80%

O=C(NN1CCOc2ccccc21)c1cnc2c(-c3cc(Cl)cc(Cl)c3)cccc2c1N1CCOCC1 [Example 5.3, 8-(3,5-dichlorophenyl)-N-(2,3-dihydro-1,4-benzoxazin-4-yl)-4-morpholino-quinoline-3-carboxamide]
% effective against L.s. (% reduction in worm numbers vs placebo, Abbot's formula) (L. sigmodontis): > 80% | % effective against Hc (% reduction in worm numbers vs placebo, Abbot's formula) (H. contortus): > 80% | % effective against Tc (% reduction in worm numbers vs placebo, Abbot's formula) (T. colubriformis): > 80%

O=C(NN1CCOc2ccccc21)c1cnc2c(-c3cc(F)cc(F)c3F)cccc2c1N1CCOCC1 [Example 5.6, N-(2,3-dihydro-1,4-benzoxazin-4-yl)-4-morpholino-8-(2,3,5-trifluorophenyl)quinoline-3-carboxamide]
% effective against Av (% reduction in worm numbers vs placebo, Abbot's formula) (A. viteae): > 80% | % effective against Hc (% reduction in worm numbers vs placebo, Abbot's formula) (H. contortus): > 80%

CN(C)c1c(C(=O)NN2CCOc3ccccc32)cnc2c(-c3cc(Cl)c(F)c(Cl)c3F)c(F)ccc12 [Example 5.56, 8-(3,5-dichloro-2,4-difluoro-phenyl)-N-(2,3-dihydro-1,4-benzoxazin-4-yl)-4-(dimethylamino)-7-fluoro-quinoline-3-carboxamide]
% effective against L.s. (% reduction in worm numbers vs placebo, Abbot's formula) (L. sigmodontis): > 80%

O=C(NN1CCOc2ccccc21)c1cnc2c(-c3cc(F)cc(F)c3F)ccnc2c1N1CCOCC1 [Example 3.4, N-(2,3-dihydro-1,4-benzoxazin-4-yl)-4-morpholino-8-(2,3,5-trifluorophenyl)-1,5-naphthyridine-3-carboxamide]
% effective against Av (% reduction in worm numbers vs placebo, Abbot's formula) (A. viteae): > 80%

O=C(NN1CCOc2ccccc21)c1cnc2c(-c3cc(Cl)c(F)c(Cl)c3F)cccc2c1N1CCOCC1 [Example 5.23, 8-(3,5-dichloro-2,4-difluoro-phenyl)-N-(2,3-dihydro-1,4-benzoxazin-4-yl)-4-morpholino-quinoline-3-carboxamide]
% effective against Hc (% reduction in worm numbers vs placebo, Abbot's formula) (H. contortus): > 80% | % effective against Tc (% reduction in worm numbers vs placebo, Abbot's formula) (T. colubriformis): > 80%

O=C(NN1CCOc2ccccc21)c1cnc2c(-c3cc(F)c(F)c(F)c3F)cccc2c1N1CCOCC1 [Example 5.20, N-(2,3-dihydro-1,4-benzoxazin-4-yl)-4-morpholino-8-(2,3,4,5-tetrafluorophenyl)quinoline-3-carboxamide]
% effective against Av (% reduction in worm numbers vs placebo, Abbot's formula) (A. viteae): > 80%

O=C(NN1CCOc2ccccc21)c1cnc2c(-c3cc(Cl)cc(Cl)c3F)c(F)ccc2c1N1CCOCC1 [Example 5.47, 8-(3,5-dichloro-2-fluoro-phenyl)-N-(2,3-dihydro-1,4-benzoxazin-4-yl)-7-fluoro-4-morpholino-quinoline-3-carboxamide]
% effective against L.s. (% reduction in worm numbers vs placebo, Abbot's formula) (L. sigmodontis): > 80% | % effective against Hc (% reduction in worm numbers vs placebo, Abbot's formula) (H. contortus): > 80% | % effective against Tc (% reduction in worm numbers vs placebo, Abbot's formula) (T. colubriformis): > 80%

O=C(NN1CCOc2ccccc21)c1cnc2c(-c3cc(Cl)cc(F)c3F)cccc2c1N1CCOCC1 [Example 5.19, 8-(5-chloro-2,3-difluoro-phenyl)-N-(2,3-dihydro-1,4-benzoxazin-4-yl)-4-morpholino-quinoline-3-carboxamide]
% effective against Av (% reduction in worm numbers vs placebo, Abbot's formula) (A. viteae): > 80% | % effective against Hc (% reduction in worm numbers vs placebo, Abbot's formula) (H. contortus): > 80% | % effective against Tc (% reduction in worm numbers vs placebo, Abbot's formula) (T. colubriformis): > 80%

O=C(NN1CCOc2ccccc21)c1cnc2c(-c3cc(Cl)cc(Cl)c3)c(F)ccc2c1N1CCOCC1 [Example 5.7, 8-(3,5-dichlorophenyl)-N-(2,3-dihydro-1,4-benzoxazin-4-yl)-7-fluoro-4-morpholino-quinoline-3-carboxamide]
% effective against Av (% reduction in worm numbers vs placebo, Abbot's formula) (A. viteae): > 80%

O=C(NN1CCOc2ccccc21)c1cnc2c(-c3cc(F)cc(F)c3)c(F)ccc2c1N1CCOCC1 [Example 5.8, 8-(3,5-difluorophenyl)-N-(2,3-dihydro-1,4-benzoxazin-4-yl)-7-fluoro-4-morpholino-quinoline-3-carboxamide]
% effective against Av (% reduction in worm numbers vs placebo, Abbot's formula) (A. viteae): > 80%
